Reference: paper PMC5870580

T1: Myc-tagged CACUL1 (human) (UniProt Q86Y37)
T1 sequence: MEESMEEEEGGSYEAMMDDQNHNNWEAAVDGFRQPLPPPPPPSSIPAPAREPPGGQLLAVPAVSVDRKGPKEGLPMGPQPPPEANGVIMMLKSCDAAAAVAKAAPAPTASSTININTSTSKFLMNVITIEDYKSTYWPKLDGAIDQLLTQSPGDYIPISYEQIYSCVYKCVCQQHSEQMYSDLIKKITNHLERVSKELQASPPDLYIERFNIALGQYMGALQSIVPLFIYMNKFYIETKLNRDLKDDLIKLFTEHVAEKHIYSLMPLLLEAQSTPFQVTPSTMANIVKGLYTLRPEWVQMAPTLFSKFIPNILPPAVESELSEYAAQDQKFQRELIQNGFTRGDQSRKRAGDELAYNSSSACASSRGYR


Key:
[1] = molecular target: T1, Myc-tagged CACUL1 (human); experiment: co-IP; HEK293 cells co-transfected with tagged constructs; lysates incubated overnight at 4 °C with the antibody against the tag (1:200), protein A/G agarose beads, western blot; for GFP-CACUL1 and Myc-PPARγ with and without rosiglitazone
[2] = molecular target: FLAG-tagged N-terminal region of SIRT1; experiment: as above

binding [1] | binding [2] | Molecule
binds |  | GFP-fused PPARγ-E/F domain (domain or fragment)
 | binds | GFP-CACUL1 (protein, UniProt Q86Y37 1-369) MEESMEEEEGGSYEAMMDDQNHNNWEAAVDGFRQPLPPPPPPSSIPAPAREPPGGQLLAVPAVSVDRKGPKEGLPMGPQPPPEANGVIMMLKSCDAAAAVAKAAPAPTASSTININTSTSKFLMNVITIEDYKSTYWPKLDGAIDQLLTQSPGDYIPISYEQIYSCVYKCVCQQHSEQMYSDLIKKITNHLERVSKELQASPPDLYIERFNIALGQYMGALQSIVPLFIYMNKFYIETKLNRDLKDDLIKLFTEHVAEKHIYSLMPLLLEAQSTPFQVTPSTMANIVKGLYTLRPEWVQMAPTLFSKFIPNILPPAVESELSEYAAQDQKFQRELIQNGFTRGDQSRKRAGDELAYNSSSACASSRGYR

Results are given in words; binding and its absence hold for the method and conditions named. In cells and extracts the contact can be indirect. Binding can be weak; no strength is given. Where a sequence is shown, tags or fusion partners need not be part of it.
